These are yes or no findings as the source states them, for the method shown. For some assays here: Binding seen in cells or lysates may run through a third protein. Some binding calls cover weakened binding; strength is not graded here. For some assays here: Where a sequence is shown, tags or fusion partners need not be part of it.

Amino acid sequences for entries named in this document (tags omitted).
UniProt Q14839: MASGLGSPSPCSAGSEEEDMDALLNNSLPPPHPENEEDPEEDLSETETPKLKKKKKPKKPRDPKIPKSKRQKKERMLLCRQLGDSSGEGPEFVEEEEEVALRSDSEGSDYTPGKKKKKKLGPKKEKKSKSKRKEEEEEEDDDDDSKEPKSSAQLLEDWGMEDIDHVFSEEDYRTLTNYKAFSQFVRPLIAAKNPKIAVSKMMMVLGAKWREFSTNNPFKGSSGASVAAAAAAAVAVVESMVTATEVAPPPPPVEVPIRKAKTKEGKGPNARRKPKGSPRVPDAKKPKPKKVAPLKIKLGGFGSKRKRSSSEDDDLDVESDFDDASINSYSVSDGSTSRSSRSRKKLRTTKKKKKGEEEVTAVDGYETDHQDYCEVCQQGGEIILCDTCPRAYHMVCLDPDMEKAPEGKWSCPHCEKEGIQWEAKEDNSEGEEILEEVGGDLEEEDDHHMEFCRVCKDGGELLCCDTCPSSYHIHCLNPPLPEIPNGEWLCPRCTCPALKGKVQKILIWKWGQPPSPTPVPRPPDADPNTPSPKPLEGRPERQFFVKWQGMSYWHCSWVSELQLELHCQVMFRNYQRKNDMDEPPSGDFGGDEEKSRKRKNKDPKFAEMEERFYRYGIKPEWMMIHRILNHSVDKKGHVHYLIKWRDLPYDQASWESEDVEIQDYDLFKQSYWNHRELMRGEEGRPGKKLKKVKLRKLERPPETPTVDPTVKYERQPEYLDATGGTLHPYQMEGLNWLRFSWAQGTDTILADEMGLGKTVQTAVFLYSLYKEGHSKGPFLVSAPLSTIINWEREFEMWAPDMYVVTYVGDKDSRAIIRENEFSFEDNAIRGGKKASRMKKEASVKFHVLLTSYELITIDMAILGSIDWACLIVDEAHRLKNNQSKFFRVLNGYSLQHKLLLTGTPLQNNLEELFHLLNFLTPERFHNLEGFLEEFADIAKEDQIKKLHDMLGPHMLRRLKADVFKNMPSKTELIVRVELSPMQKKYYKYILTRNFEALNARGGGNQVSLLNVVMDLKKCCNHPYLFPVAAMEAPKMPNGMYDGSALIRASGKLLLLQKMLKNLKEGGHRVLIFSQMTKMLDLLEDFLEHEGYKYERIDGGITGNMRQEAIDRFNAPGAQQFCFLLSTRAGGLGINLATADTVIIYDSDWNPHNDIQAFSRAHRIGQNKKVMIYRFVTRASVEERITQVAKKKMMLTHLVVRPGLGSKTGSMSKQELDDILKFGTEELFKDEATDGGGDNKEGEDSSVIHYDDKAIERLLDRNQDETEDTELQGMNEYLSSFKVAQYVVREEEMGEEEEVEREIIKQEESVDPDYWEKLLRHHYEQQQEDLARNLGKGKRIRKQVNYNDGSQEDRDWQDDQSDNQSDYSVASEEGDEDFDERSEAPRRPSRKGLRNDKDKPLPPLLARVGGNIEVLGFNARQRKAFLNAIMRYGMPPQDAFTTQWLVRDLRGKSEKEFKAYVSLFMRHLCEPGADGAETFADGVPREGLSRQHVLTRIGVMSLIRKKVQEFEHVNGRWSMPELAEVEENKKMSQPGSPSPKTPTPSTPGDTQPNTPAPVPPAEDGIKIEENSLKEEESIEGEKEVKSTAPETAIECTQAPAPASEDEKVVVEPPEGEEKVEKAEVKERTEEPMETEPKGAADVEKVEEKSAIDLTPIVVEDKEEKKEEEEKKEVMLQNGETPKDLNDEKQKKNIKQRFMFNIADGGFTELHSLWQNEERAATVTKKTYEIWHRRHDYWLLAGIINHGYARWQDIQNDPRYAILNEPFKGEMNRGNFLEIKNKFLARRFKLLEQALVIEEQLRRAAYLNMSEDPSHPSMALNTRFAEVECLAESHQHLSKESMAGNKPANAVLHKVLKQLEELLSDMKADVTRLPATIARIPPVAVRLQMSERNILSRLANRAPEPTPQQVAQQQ
UniProt Q13547: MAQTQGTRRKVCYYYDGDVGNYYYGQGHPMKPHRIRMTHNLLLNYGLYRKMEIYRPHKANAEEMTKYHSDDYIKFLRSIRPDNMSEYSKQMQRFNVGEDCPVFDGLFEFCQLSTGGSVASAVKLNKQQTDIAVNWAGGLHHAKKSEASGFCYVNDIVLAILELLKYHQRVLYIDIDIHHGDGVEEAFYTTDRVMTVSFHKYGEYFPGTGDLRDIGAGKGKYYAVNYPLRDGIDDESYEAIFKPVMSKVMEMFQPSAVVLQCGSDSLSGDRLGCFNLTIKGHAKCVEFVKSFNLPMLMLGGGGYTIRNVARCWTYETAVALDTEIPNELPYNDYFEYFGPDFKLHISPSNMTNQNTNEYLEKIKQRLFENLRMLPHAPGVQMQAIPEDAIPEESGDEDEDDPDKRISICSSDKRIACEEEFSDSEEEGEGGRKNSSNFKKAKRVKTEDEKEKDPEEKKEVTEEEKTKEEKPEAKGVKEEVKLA
UniProt O09106: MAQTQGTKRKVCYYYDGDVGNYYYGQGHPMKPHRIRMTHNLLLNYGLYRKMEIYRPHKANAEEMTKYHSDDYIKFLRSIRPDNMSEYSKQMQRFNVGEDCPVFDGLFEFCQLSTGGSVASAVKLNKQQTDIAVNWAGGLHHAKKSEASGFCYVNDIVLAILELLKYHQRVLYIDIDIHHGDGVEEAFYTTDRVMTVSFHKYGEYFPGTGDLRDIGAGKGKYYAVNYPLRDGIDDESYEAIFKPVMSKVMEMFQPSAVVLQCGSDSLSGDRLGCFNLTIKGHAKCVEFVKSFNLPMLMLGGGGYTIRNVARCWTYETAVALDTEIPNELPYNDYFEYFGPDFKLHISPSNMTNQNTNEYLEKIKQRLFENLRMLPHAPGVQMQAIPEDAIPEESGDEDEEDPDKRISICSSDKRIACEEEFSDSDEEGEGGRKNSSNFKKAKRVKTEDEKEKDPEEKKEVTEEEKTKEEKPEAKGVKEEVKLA
UniProt Q92769: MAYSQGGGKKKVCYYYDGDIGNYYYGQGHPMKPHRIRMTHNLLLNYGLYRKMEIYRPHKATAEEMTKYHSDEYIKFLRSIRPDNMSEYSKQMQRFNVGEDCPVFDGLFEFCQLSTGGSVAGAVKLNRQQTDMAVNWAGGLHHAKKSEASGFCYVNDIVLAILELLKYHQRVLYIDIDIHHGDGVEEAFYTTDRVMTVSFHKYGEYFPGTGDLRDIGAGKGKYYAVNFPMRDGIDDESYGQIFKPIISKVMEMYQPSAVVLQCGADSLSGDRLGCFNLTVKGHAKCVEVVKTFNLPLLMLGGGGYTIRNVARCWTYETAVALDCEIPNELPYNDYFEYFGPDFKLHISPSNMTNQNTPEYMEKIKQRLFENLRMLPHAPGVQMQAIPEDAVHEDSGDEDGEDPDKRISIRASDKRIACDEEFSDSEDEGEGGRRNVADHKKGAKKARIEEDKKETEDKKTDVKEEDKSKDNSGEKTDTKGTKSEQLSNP
UniProt Q8K4B0: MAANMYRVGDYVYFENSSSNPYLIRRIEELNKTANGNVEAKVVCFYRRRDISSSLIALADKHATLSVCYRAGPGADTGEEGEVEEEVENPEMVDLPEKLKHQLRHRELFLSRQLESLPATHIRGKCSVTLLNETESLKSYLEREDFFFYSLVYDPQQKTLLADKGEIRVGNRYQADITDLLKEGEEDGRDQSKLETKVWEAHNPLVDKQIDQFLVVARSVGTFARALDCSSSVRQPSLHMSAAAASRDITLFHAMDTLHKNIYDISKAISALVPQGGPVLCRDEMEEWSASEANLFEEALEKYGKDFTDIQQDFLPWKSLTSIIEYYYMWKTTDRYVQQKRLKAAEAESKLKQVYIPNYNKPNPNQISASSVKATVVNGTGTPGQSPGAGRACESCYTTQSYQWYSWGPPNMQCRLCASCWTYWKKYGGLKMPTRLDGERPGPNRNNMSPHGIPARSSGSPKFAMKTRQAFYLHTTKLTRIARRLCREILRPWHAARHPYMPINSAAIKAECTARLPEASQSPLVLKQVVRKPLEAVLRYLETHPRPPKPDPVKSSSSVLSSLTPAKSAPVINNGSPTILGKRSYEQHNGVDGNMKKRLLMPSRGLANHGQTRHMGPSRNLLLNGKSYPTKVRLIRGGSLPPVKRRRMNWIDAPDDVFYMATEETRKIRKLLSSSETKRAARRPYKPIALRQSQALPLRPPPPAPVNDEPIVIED

Assay [1] concerns the target T1, ZEB1, endogenous in human NSCLC cell lines (human (endogenous in H157 and H1299)) (UniProt P37275).
T1 sequence: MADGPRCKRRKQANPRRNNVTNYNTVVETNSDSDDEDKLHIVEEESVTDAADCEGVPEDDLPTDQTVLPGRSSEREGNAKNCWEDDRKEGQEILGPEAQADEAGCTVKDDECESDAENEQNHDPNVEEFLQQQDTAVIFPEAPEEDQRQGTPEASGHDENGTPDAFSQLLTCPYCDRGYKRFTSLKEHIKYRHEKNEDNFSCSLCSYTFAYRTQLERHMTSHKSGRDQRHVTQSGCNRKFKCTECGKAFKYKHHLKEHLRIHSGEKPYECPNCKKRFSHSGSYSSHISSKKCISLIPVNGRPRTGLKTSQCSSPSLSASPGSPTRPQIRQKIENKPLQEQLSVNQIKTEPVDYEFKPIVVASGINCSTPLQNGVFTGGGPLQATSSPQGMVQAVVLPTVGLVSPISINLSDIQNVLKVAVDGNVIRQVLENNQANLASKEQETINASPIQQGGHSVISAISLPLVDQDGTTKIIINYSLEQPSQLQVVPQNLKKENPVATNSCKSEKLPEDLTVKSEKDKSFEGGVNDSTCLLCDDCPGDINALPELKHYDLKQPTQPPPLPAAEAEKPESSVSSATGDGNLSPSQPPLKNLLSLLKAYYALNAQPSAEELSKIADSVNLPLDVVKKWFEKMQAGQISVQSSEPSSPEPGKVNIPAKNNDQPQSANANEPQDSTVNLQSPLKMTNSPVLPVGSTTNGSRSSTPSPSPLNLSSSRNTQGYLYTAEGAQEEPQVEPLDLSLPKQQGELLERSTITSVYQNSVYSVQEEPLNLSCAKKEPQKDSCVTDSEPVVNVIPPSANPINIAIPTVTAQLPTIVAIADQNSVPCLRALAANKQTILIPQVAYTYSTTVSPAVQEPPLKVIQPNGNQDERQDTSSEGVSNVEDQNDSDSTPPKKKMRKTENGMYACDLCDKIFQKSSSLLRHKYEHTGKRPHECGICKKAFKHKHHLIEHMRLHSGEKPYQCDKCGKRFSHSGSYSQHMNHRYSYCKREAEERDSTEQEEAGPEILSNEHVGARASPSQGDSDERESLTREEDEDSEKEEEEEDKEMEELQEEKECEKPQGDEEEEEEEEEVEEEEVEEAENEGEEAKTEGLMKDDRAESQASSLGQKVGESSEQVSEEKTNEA
Briefly: SEC; nuclear lysates of H157 and 344SQ on a Superose column, 60 fractions, SDS-PAGE and immunoblot; co-elution in fractions 25-35, above 669 kDa.

Assay [2] addresses T1, ZEB1, endogenous in human NSCLC cell lines (human (endogenous in H157 and H1299)). Briefly: proximity ligation; endogenous proteins in fixed, permeabilised H157, H1299, 344SQ and 531LN2 cells; primary antibodies to ZEB1 and a NuRD member; Duolink In Situ Red Starter Mouse/Rabbit kit; confocal microscopy.
The target of assay [3] is T2, FlagBirA*-ZEB1 (human ZEB1 with an N-terminal FlagBirA* tag) (human) (UniProt P37275).
T2 sequence: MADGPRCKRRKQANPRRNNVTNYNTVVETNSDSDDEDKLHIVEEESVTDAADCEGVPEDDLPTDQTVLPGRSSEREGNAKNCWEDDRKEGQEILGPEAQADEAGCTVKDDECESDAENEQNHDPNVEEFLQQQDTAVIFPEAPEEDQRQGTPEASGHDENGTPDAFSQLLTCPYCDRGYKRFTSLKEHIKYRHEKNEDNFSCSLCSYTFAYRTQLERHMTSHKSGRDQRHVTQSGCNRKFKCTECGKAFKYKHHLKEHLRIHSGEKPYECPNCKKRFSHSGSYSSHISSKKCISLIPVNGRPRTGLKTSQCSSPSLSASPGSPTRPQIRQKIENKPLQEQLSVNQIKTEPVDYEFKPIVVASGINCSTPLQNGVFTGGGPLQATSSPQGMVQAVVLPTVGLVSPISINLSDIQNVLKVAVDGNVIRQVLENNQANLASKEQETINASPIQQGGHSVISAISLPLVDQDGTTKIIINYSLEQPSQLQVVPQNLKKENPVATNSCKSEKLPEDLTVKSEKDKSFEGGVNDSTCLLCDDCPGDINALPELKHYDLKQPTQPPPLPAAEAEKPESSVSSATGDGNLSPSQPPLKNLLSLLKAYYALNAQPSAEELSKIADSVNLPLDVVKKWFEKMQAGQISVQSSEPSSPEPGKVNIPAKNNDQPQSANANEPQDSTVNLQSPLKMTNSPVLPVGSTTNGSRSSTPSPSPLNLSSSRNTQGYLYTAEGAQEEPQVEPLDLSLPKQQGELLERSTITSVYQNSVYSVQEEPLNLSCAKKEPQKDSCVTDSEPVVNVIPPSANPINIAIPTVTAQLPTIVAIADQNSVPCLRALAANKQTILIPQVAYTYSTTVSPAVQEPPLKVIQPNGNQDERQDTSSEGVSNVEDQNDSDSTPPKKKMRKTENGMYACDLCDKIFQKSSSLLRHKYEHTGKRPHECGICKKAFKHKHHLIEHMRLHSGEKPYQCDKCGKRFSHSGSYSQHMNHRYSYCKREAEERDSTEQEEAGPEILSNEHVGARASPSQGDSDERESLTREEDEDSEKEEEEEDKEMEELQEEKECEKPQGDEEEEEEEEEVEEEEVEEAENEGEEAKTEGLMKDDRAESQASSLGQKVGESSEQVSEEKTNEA
Briefly: co-IP; HEK293 Flp-In cells expressing FlagBirA*-ZEB1; 500 ug crude lysate with primary antibody overnight at 4 °C, Protein A/G PLUS-Agarose, washes with PBS and 50 mM Tris pH 7.4, 150 mM NaCl, 0.1% NP-40; Western blot. In general terms: Immunoblotting shows a protein as a band on a membrane.

The target in assay [4] is T3, GFP-conjugated ZEB1 expressed in 344SQ (UniProt P37275).
T3 sequence: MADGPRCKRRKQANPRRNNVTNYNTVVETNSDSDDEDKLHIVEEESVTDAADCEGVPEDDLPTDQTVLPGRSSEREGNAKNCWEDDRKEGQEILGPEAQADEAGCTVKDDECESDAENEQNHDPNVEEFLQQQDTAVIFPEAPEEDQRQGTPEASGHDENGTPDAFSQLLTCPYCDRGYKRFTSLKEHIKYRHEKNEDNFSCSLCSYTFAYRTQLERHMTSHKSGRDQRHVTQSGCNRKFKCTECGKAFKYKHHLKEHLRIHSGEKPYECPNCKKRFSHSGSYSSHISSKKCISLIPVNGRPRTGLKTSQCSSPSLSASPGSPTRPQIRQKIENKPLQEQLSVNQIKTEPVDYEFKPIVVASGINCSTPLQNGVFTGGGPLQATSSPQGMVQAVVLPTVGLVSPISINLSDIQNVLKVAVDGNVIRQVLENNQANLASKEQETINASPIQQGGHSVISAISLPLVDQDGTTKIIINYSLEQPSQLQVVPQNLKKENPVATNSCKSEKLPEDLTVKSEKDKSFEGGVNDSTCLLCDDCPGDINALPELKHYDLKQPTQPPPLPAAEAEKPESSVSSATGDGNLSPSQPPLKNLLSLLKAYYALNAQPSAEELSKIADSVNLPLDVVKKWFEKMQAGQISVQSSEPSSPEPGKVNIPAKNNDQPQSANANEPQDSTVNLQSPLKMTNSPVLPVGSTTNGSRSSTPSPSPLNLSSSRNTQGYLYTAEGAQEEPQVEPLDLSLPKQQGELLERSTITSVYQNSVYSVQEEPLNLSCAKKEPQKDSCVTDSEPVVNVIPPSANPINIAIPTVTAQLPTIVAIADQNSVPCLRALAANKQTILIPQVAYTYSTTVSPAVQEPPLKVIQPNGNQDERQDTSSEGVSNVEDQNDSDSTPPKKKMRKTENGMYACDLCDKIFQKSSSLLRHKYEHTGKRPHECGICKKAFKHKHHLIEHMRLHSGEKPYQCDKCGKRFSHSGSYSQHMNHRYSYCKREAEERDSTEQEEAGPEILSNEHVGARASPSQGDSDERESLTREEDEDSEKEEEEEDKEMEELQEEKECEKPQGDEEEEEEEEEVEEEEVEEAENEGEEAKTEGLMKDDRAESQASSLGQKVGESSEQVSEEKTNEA
Briefly: co-IP; 344SQ murine cells expressing GFP-ZEB1; 500 ug crude lysate with primary antibody overnight at 4 °C, Protein A/G PLUS-Agarose; Western blot.

“CHD4 (chromodomain helicase DNA-binding protein 4), human, endogenous (from UniProt Q14839 1-1912)”: the binding result in assay [1] and in assay [2] was “binds” in each case.

Take “HDAC1 (histone deacetylase 1), human, endogenous (from UniProt Q13547 1-482)”: the binding entry in assay [1], in assay [2] and in assay [3] was “binds” each time.

“HDAC1, murine, endogenous (from UniProt O09106 1-482)”: in assay [4], the binding entry is recorded as “binds”.

For the substance “HDAC2 (histone deacetylase 2), human, endogenous (from UniProt Q92769 1-488)”, in assay [2], the binding entry is listed as “binds”.

For the substance “MTA1, murine, endogenous (from UniProt Q8K4B0 1-715)”, in assay [4], the binding result was “binds”.

For the origin of these results see article PMC6851102.
